Results on one molecule are retold here after paper PMC11167823.

Assay [1] deals with T1, Serum response factor (human (endogenous in primary EcESCs)) (UniProt P11831).
T1 sequence: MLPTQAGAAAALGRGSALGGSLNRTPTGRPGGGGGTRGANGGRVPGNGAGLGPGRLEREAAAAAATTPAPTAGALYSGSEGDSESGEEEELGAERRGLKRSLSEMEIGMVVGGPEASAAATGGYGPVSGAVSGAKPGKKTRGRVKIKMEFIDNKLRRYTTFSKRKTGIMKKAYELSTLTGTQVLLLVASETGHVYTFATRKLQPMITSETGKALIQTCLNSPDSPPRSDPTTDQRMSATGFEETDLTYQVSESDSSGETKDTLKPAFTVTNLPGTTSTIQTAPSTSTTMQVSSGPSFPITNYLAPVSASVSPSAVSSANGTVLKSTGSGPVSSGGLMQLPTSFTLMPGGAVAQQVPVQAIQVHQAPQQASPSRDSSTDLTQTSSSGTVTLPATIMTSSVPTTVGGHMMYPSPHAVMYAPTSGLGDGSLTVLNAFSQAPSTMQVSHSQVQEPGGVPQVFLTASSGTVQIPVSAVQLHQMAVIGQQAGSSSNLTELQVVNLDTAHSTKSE
In words: co-IP; endogenous proteins; immunoprecipitation following nuclear-cytoplasmic separation of TGF-β1-stimulated primary human EcESCs.

In assay [2] the target is T1, Serum response factor (human (endogenous in primary EcESCs)). The assay can be described thus: co-IP; endogenous proteins; whole-cell lysate of primary human EcESCs treated with or without TGF-β1 (12 ng/ml); immunoprecipitation with SRF antibody, Protein A/G PLUS-Agarose, western blot for KAT14; isotype IgG as negative control. Background: In western blotting, separated proteins are transferred to a membrane and probed.

No constants are given. Whether binding was seen depends on the method and setting. Binding seen in cells or lysates may run through a third protein. Some entries that bind do so weakly or less than the wild type.

B1: Lysine acetyltransferase 14 (protein, UniProt Q9H8E8 1-782)
chain: MDSSIHLSSLISRHDDEATRTSTSEGLEEGEVEGETLLIVESEDQASVDLSHDQSGDSLNSDEGDVSWMEEQLSYFCDKCQKWIPASQLREQLSYLKGDNFFRFTCSDCSADGKEQYERLKLTWQQVVMLAMYNLSLEGSGRQGYFRWKEDICAFIEKHWTFLLGNRKKTSTWWSTVAGCLSVGSPMYFRSGAQEFGEPGWWKLVHNKPPTMKPEGEKLSASTLKIKAASKPTLDPIITVEGLRKRASRNPVESAMELKEKRSRTQEAKDIRRAQKEAAGFLDRSTSSTPVKFISRGRRPDVILEKGEVIDFSSLSSSDRTPLTSPSPSPSLDFSAPGTPASHSATPSLLSEADLIPDVMPPQALFHDDDEMEGDGVIDPGMEYVPPPAGSVASGPVVGVRKKVRGPEQIKQEVESEEEKPDRMDIDSEDTDSNTSLQTRAREKRKPQLEKDTKPKEPRYTPVSIYEEKLLLKRLEACPGAVAMTPEARRLKRKLIVRQAKRDRGLPLFDLDQVVNAALLLVDGIYGAKEGGISRLPAGQATYRTTCQDFRILDRYQTSLPSRKGFRHQTTKFLYRLVGSEDMAVDQSIVSPYTSRILKPYIRRDYETKPPKLQLLSQIRSHLHRSDPHWTPEPDAPLDYCYVRPNHIPTINSMCQEFFWPGIDLSECLQYPDFSVVVLYKKVIIAFGFMVPDVKYNEAYISFLFVHPEWRRAGIATFMIYHLIQTCMGKDVTLHVSASNPAMLLYQKFGFKTEEYVLDFYDKYYPLESTECKHAFFLRLRR
Turning to B1, the binding result in assay [1] and in assay [2] was “binds” throughout.
